No constants are given. Whether binding was seen depends on the method and setting. For part of these data: Binding seen in cells or lysates may run through a third protein. Some results given as binding are weak or reduced against the parent protein; the word gives no strength.

Amino acid sequences for entries named in this document (tags omitted). A change or cut given only in a name is not applied to a line headed by its entry. Chains listed by the source or under a name are the forms on record and can include a tag or linker. Residues count along the entry.
UniProt P83369, residues 23-130: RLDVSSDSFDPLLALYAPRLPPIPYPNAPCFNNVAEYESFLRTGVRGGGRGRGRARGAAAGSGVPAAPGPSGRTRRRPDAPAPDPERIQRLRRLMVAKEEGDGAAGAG
FLASH NTD C54S/C83A/Y73A/L76A/Y80A without tag, co-expressed with His-tagged Lsm11 NTD (Q9UKL3, form named): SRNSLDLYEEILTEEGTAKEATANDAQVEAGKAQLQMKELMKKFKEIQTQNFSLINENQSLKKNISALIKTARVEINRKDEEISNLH
FLASH NTD C54S/C83A/K88A/K92A/K95A without tag, co-expressed with His-tagged Lsm11 NTD (Q9UKL3, form named): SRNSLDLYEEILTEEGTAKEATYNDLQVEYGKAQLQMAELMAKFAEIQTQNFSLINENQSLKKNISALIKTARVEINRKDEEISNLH

This is an account of results in article PMC5636114 (PLoS ONE, 2017).

For test [1], the target named is Lsm11 NTD (residues 23-130), N-terminally hexahistidine-tagged (UniProt P83369). The experiment in a line: pull-down; His-tagged Lsm11 NTD and untagged FLASH NTD co-expressed in E. coli (5 mL LB), co-purified on Ni-NTA agarose beads, SDS-PAGE.
The target is the same in test [2]. The test is described as follows: AUC; sedimentation velocity (42,000 rpm) and equilibrium, 20 C, 20 mM Tris (pH 8.5), 250 mM NaCl, 5 mM DTT (low-salt condition), 0.05 to 1 mg/ml (complex also 8 mg/ml); global fit by SEDPHAT: monomer-dimer self-association (dimer to monomers) or A + B <-> AB hetero-association; both purified.

Regarding “FLASH NTD C54S/C83A/Y73A/L76A/Y80A without tag, co-expressed with His-tagged Lsm11 NTD (from UniProt Q9UKL3 51-137) (domain or fragment)”, the binding entry in test [1] was “binds”.
As for “Lsm11 NTD (residues 23-130), N-terminally hexahistidine-tagged (from UniProt P83369 23-130) (domain or fragment)”, in test [2], the binding result was “no binding (tested: 0.8 mg/ml)”.
With “FLASH NTD C54S/C83A/K88A/K92A/K95A without tag, co-expressed with His-tagged Lsm11 NTD (from UniProt Q9UKL3 51-137) (domain or fragment)”, the binding result in test [1] is “binds”.
